# In PubChem BioAssay AID2685 (National Center for Advancing Translational Sciences (NCATS), 2010):
# The other results are listed elsewhere or left out. The main result of the screen is listed elsewhere. These columns were measured beside it and carry no call. Compounds called inactive in the main read-out are mostly missing here. Potencies come from curve fits of mixed quality, noted in brackets.
# Assay: qHTS Assay for Lipid Storage Modulators in Drosophila S3 Cells;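 on cell number change: cells counted by Cell Tracker Red CMTPX staining in the red channel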
# Conditions: BODIPY lipid droplet fluorescence, 18-24 h; for cell number change: measured here: cell count max response, cells fed with added oleic acid
# In short: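 Laser-scanning cytometry quantifies lipid droplet accumulation (500–530 nm total intensity; droplet/cell object ratio) in oleic acid-fed (400 uM added) Drosophila S3 cells treated with a concentration series. 20 uM Triacsin C defined 100% inhibition.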
# [1] = measured here: cell number channel AC50, cells fed with added oleic acid
# [2] = measured here: lipid fluorescence (Fed channel) AC50, cells fed with added oleic acid
smiles,measurement,setting,value
NC(=O)/C=C/C(=O)Nc1ccc(Cl)cc1,cell number change,,-49.5%
same,AC50,[1],"10.3 µM [falling, partial curve]"
same,AC50,[2],"14.6 µM [falling, partial curve]"
CCCc1cc(=O)oc2cc(OCC(=O)Nc3ccc4c(c3)OCCO4)ccc12,cell number change,,-12.5%
same,AC50,[2],"0.731 µM [rising, single point]"
CC(C)C(NS(=O)(=O)c1ccc2c(c1)OCCCO2)C(=O)O (stereo not drawn),cell number change,,-13.2%
CCOC(=O)C(CC)n1cnc2c(nnn2-c2ccc(OC)cc2)c1=O (stereo not drawn),cell number change,,17.9%
same,AC50,[2],"0.517 µM [rising, full curve]"
N#CCCN(C(=O)Nc1ccccc1)c1ccccc1,cell number change,,9.39%
same,AC50,[2],"0.00411 µM [falling, full curve, poor fit]"
Cc1ccc(C2CC(=O)Oc3cc(O)ccc32)cc1 (stereo not drawn),AC50,[2],"29.1 µM [rising, single point]"
C[C@@H]1Cc2c(O)c(O)cc(O)c2C(=O)O1,cell number change,,15.3%
same,AC50,[2],"6.51 µM [rising, single point]"
COc1ccc(OCCOC(=O)CN2C(=O)NC3(CCCC3)C2=O)cc1,AC50,[1],"2.06 µM [rising, partial curve]"
COC(C)(C)[C@H](O)COc1c2ccoc2cc2oc(=O)ccc12,cell number change,,7.17%
same,AC50,[2],"3.66 µM [rising, full curve, poor fit]"
C=C(c1ccccc1C)[n+]1ccccc1,cell number change,,4.01%
Cc1ccsc1/C=N/NC(=O)c1ccc2ccccc2c1,cell number change,,33.7%
same,AC50,[1],"29.1 µM [rising, single point]"
COc1cc2c(cc1OC)-c1cc(NC3CCCCCC3)nc(=O)n1CC2,AC50,[1],"4.61 µM [falling, single point]"
Cc1ccc(S(=O)(=O)Cc2c(C)noc2C)cc1,cell number change,,2.36%
same,AC50,[2],"2.06 µM [falling, partial curve]"
CCS(=O)(=O)n1nc(-c2ccc(OC)cc2)nc1SC,cell number change,,11.2%
same,AC50,[2],"2.31 µM [rising, single point]"
O=C(/C(=C/c1ccncc1)n1ccnc1)c1ccc(Cl)cc1Cl,cell number change,,-24.6%
same,AC50,[2],"2.91 µM [rising, partial curve, poor fit]"
COc1ccccc1N(C)S(=O)(=O)c1ccc(C(=O)OCC(=O)N(C)c2ccccc2)cc1,AC50,[1],"6.51 µM [rising, single point]"
O=C(CSc1ccncc1)Nc1ccc2ccccc2c1,cell number change,,40%
same,AC50,[1],"18.4 µM [rising, partial curve]"
same,AC50,[2],"1.64 µM [rising, partial curve]"
COc1cccc(CN(C(=O)c2ccccc2Cl)C2CCS(=O)(=O)C2)c1 (stereo not drawn),cell number change,,1.53%
O=C(NN=C1CCCCC1)NC1CCCCC1,AC50,[2],"0.411 µM [rising, full curve, poor fit]"
COc1cccc(/C=N/NC(=O)C(=O)N2CCCCCC2)c1O,cell number change,,-38.7%
same,AC50,[1],"23.1 µM [falling, single point]"
same,AC50,[2],"29.1 µM [falling, single point]"
COc1ccc(C(=O)Nc2cccc3c2C(=O)NC3=O)cc1S(=O)(=O)N1CCOCC1,cell number change,,-13.2%
same,AC50,[2],"32.6 µM [falling, single point]"
COc1ccc(Cl)cc1NC(=O)CSc1nnc(-c2ccncc2)n1CC1CCCO1 (stereo not drawn),cell number change,,0.97%
same,AC50,[2],"0.259 µM [rising, full curve]"
CCOc1cc(/C=N/N2C(=O)NC3(CCCCC3)C2=O)cc(Br)c1O,cell number change,,-25.7%
same,AC50,[2],"2.31 µM [falling, full curve]"
O=C(NC(=S)Nc1ccc2[nH]c(=O)[nH]c2c1)c1cc(Br)ccc1Cl,cell number change,,31.7%
same,AC50,[1],"23.1 µM [rising, single point]"
same,AC50,[2],"0.291 µM [rising, full curve, poor fit]"
O=S(=O)(Nc1ccc(-c2csc(-c3ccccc3)n2)cc1)c1ccccc1,cell number change,,-63.9%
same,AC50,[1],"3.26 µM [falling, single point]"
CC(=O)Nc1ccc(NC(=O)CSc2nnc(CC(C)O)n2-c2ccccc2)cc1 (stereo not drawn),AC50,[2],"0.58 µM [falling, single point]"
CCCC(=O)NC(c1ccccc1)c1ccc2cccnc2c1O (stereo not drawn),cell number change,,-47.2%
same,AC50,[1],"14.6 µM [falling, single point]"
same,AC50,[2],"0.651 µM [falling, partial curve, poor fit]"
Cc1cccc(N(C(=O)CCC(=O)Nc2cc(C)on2)C(C(=O)NC2CCCC2)c2ccccc2)c1 (stereo not drawn),cell number change,,7.83%
COCCNC(=O)Nc1ccc(F)cc1,cell number change,,-48.9%
same,AC50,[1],"0.891 µM [falling, full curve]"
same,AC50,[2],"2.51 µM [falling, full curve]"
CCn1cnc2sc(C(=O)N3CCN(c4ccc(OC)cc4)CC3)c(C)c2c1=O,cell number change,,17.2%
same,AC50,[2],"29.1 µM [rising, single point]"
CC(=O)Nc1nonc1NC(=O)COc1ccccc1,cell number change,,-32.9%
same,AC50,[1],"0.731 µM [falling, full curve, poor fit]"
same,AC50,[2],"29.1 µM [falling, single point]"
CCOc1ccc(/C=C/C(O)=C2/C(=O)NC3(C)CC2c2ccccc2O3)cc1OC (stereo not drawn),cell number change,,-35.2%
same,AC50,[1],"29.1 µM [falling, single point]"
same,AC50,[2],"29.1 µM [falling, single point]"
COC(=O)CN1C(=O)Nc2ccc(Br)cc2C1c1ccccc1Cl (stereo not drawn),cell number change,,-31.1%
same,AC50,[1],"20.6 µM [falling, single point]"
same,AC50,[2],"0.164 µM [rising, full curve, poor fit]"
Cc1[nH]nc2c1C(c1cnn(C)c1)C(C#N)=C(N)O2 (stereo not drawn),cell number change,,-30.6%
same,AC50,[2],"32.6 µM [falling, single point]"
O=C(N/N=C/c1sc(N2CCOCC2)nc1-c1ccccc1)c1cccc(S(=O)(=O)N2CCOCC2)c1,cell number change,,-49.4%
same,AC50,[1],"14.6 µM [falling, partial curve, poor fit]"
same,AC50,[2],"3.66 µM [falling, full curve]"
COC(=O)CCCNc1ncccc1[N+](=O)[O-],cell number change,,-10.9%
COc1ccc2nc(NC(=O)CSc3nc(SC)ns3)sc2c1,cell number change,,-13.8%
same,AC50,[2],"13 µM [falling, partial curve, poor fit]"
O=C1C=CC(=O)N1c1ccc(O)cc1,cell number change,,-72%
same,AC50,[1],"16.4 µM [falling, partial curve]"
same,AC50,[2],"16.4 µM [falling, partial curve]"
COc1ccc(NC(=O)CC2C(=O)N(C)C(=S)N2Cc2ccncc2)cc1 (stereo not drawn),cell number change,,-36.9%
same,AC50,[1],"29.1 µM [falling, single point]"
O=C(Nc1cc(S(=O)(=O)N2CCCCC2)ccc1N1CCOCC1)c1ccc(F)cc1,AC50,[1],"6.51 µM [falling, single point]"
c1ccc(Nc2nc(NCc3ccco3)c3ccccc3n2)cc1,cell number change,,-63.7%
same,AC50,[1],"16.4 µM [falling, single point]"
same,AC50,[2],"20.6 µM [falling, single point]"
COc1cc2oc3ccccc3c2cc1N(CC(=O)N1CCCCC1)S(=O)(=O)c1ccc(C)cc1,cell number change,,-3.83%
same,AC50,[2],"0.58 µM [falling, single point]"
COCCN(C(=O)CSCC(=O)Nc1cccc(C)c1)c1c(N)n(Cc2ccccc2)c(=O)[nH]c1=O,AC50,[2],"6.51 µM [rising, single point]"
Cc1cc(C)n(C(=O)c2ccc([N+](=O)[O-])c(Cl)c2)n1,cell number change,,-23.8%
same,AC50,[2],"29.1 µM [falling, single point]"
CCCN1C2CCCC1CC(NC(=O)NC13CC4CC(CC(C4)C1)C3)C2 (stereo not drawn),cell number change,,-19.3%
CCOc1cc(-c2nc3ccccn3c2NCC2CCCO2)ccc1O (stereo not drawn),cell number change,,-77.8%
same,AC50,[1],"16.4 µM [falling, partial curve]"
Cc1ccccc1NC(=O)N1CCCN(c2ccc(C#N)cn2)CC1,cell number change,,22.7%
same,AC50,[2],"1.3 µM [rising, partial curve]"
C=CCn1c(SCC(=O)c2c(N)n(C3CC3)c(=O)[nH]c2=O)nnc1-c1ccc(OC)cc1,cell number change,,-12.5%
Cc1ccc(CNC(=O)c2ccc(COc3ccccc3)cc2)cc1,cell number change,,-7.81%
same,AC50,[2],"0.13 µM [rising, full curve, poor fit]"
CC(=O)c1ccc(NC(=O)Nc2ccc(Cl)cc2)cc1,cell number change,,-73.6%
same,AC50,[1],"18.4 µM [falling, single point]"
same,AC50,[2],"29.1 µM [falling, partial curve]"
CC(NC(=O)CCOc1ccccc1)c1ccccc1 (stereo not drawn),cell number change,,-25.7%
same,AC50,[2],"29.1 µM [falling, single point]"
COc1cc(C(=O)Oc2cccc(C(=S)N3CCOCC3)c2)cc(OC)c1OC,cell number change,,-21.8%
same,AC50,[2],"32.6 µM [falling, single point]"
COc1ccccc1-c1nnc(SCC(=O)c2c(N)n(C3CC3)c(=O)[nH]c2=O)o1,cell number change,,4.66%
same,AC50,[2],"7.31 µM [rising, full curve, poor fit]"
Cc1cc(/C=C2/C(=N)N3C(=NC2=O)SN=C3S(C)(=O)=O)c(C)n1-c1ccc(F)cc1,cell number change,,2.56%
same,AC50,[1],"6.51 µM [falling, single point]"
same,AC50,[2],"6.51 µM [falling, single point]"
CC(C)(C)c1ccc(OCCCNCc2ccccc2)cc1,cell number change,,-71.2%
same,AC50,[1],"25.9 µM [falling, partial curve, poor fit]"
same,AC50,[2],"23.1 µM [falling, partial curve, poor fit]"
CCn1c(SCC(=O)Nc2cc(C)on2)nc2c(c1=O)SC(C)C2 (stereo not drawn),AC50,[2],"29.1 µM [rising, single point]"
O=C(COc1ccccc1)N=C1SC2CS(=O)(=O)CC2N1c1ccccc1 (stereo not drawn),cell number change,,19%
same,AC50,[2],"23.1 µM [rising, partial curve]"
CCOC(=O)CSc1ncnc2c1cnn2-c1ccc(C)cc1C,cell number change,,22.7%
same,AC50,[2],"5.8 µM [rising, partial curve]"
Cc1ccc(N2CC(C(=O)OCc3ccccc3F)CC2=O)cc1 (stereo not drawn),cell number change,,-31.7%
same,AC50,[1],"0.259 µM [falling, full curve]"
same,AC50,[2],"23.1 µM [falling, partial curve]"

# Part of the list above, tab-delimited.
smiles	measurement	setting	value
O=C(N/N=C/c1sc(N2CCOCC2)nc1-c1ccccc1)c1cccc(S(=O)(=O)N2CCOCC2)c1	AC50	[1]	14.6 µM [falling, partial curve, poor fit]
same	AC50	[2]	3.66 µM [falling, full curve]
COC(=O)CCCNc1ncccc1[N+](=O)[O-]	cell number change		-10.9%
COc1ccc2nc(NC(=O)CSc3nc(SC)ns3)sc2c1	cell number change		-13.8%
same	AC50	[2]	13 µM [falling, partial curve, poor fit]
O=C1C=CC(=O)N1c1ccc(O)cc1	cell number change		-72%

# Some of the entries so far, bar-delimited.
smiles | measurement | setting | value
C=C(c1ccccc1C)[n+]1ccccc1 | cell number change |  | 4.01%
Cc1ccsc1/C=N/NC(=O)c1ccc2ccccc2c1 | cell number change |  | 33.7%
